Data taken from ChEMBL document CHEMBL3988442, “University of Dundee, Small-Polar-MMV Screening Library” (2021).

Amino acid sequences for entries named in this document (tags omitted).
UniProt P9WPC5, whole entry: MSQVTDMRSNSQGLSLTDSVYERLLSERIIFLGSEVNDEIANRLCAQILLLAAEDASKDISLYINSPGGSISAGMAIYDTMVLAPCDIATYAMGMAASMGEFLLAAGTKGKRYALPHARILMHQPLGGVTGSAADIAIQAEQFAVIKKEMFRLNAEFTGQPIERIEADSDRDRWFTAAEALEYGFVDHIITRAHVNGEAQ
UniProt P9WPC3, whole entry partner: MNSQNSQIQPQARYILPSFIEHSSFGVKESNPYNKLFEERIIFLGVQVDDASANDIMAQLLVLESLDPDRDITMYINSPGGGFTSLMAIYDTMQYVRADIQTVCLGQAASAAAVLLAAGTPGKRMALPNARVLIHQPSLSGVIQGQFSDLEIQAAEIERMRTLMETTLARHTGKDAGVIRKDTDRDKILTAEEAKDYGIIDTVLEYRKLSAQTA

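Protease assay of ClpP1P2, read by the AMC dye that it sets free. Target: ClpP1P2, Mycobacterium tuberculosis (UniProt P9WPC5 and UniProt P9WPC3). Concentration: 50 µM. Direction is inferred from only a few compounds that gave an IC50; most scored high, so higher reads as stronger inhibition. Most other retested compounds had strongly negative values. About 69,000 compounds were tested under these conditions; 0.015% (about 10) showed 50% or more at least once.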

Results are given as percent effect.
How 0% and 100% were set is not recorded. Most values in the screen are low, and negative values occur.
Compounds were drawn at random from those tested, without regard to their results.

| SMILES | effect |
|---|---|
| `O=C(c1ccc(F)cc1Cl)N1CCC(Nc2cccnn2)CC1` | -2.639% |
| `COCC1CC2(CCN(c3cc(OC)ncn3)CC2)CN1C(C)C` (stereo not shown) | 0.5934% |
| `CC(O)CN1CCN(C(=O)CN(C)c2cnccn2)CC1` (stereo not shown) | -2.543% |
| `O=C(Nc1cccnc1N1CCSCC1)c1ccc2c(c1)CCC2` | -5.148% |
| `c1cc2c(cc1CN1CCN(Cc3noc(C4CC4)n3)CC1)OCO2` | -37.16% |
| `COC[C@@H]1CC[C@H]2[C@H](CCN2S(=O)(=O)c2ccc(F)cc2)O1` | -1.188% |
| `CC(C)C(O)CNC(=O)Nc1ccc(F)c(Cl)c1` (stereo not shown) | 2.522% |
| `Cn1cc(CN2CC3(CCN(C(=O)c4cscn4)C3)C2)cn1` | -5.672% |
| `Cc1ccnc(NC(=O)CCc2cnn(C)c2C)c1` | -1.673% |
| `CCCn1c(C)c(CC(=O)N(C)CC(=O)OC)c2c1CC(C)(C)CC2=O` | -10.72% |
| `CCc1nc(C2CCCN2CC(=O)Nc2cc(C)on2)no1` (stereo not shown) | 4.316% |
| `COCc1cc(N(C)Cc2ccccn2)nc(C(C)(C)C)n1` | -6.883% |
| `CCCN1CCN(S(=O)(=O)c2ncn(C)c2Cl)CC1` | 0.8714% |
| `O=C(CCc1ncc(-c2ccc(F)cc2)o1)NCCN1CCOCC1` | 3.931% |
| `O=C(Cc1ccc2c(c1)OCC2)Nc1nc(C(F)(F)F)n[nH]1` | -7.981% |
| `Cn1cccc1C(=O)N1CCC(O)(CN2CCc3ccccc3C2)C1` (stereo not shown) | -2.071% |
| `COCCC1(CO)CCCN(Cc2cc(C(F)(F)F)ccc2F)C1` (stereo not shown) | -11.77% |
| `O=C(NCCn1ccc(-c2ccncc2)n1)C1CC1` | -19.45% |
| `Cc1n[nH]c(C)c1CCC(=O)NCC1CCCN(C2CCCC2)C1` (stereo not shown) | 18.73% |
| `Cc1cccc(C(=O)Nc2cccc3c2C(=O)NC3)n1` | 13.61% |
| `CCN(C(=O)CCc1ccccc1)C1CC(=O)NC1=O` (stereo not shown) | 4.99% |
| `CC(C)NC(=O)[C@@H](NC(=O)N1CCN(c2ccc(Cl)cc2)CC1)C(C)C` | -2.579% |
| `Cc1cccc(N2CCN(c3ccn4c(=O)[nH]nc4n3)CC2)c1C` | -9.185% |
| `CN1CCCCC1c1ncc2c(n1)CCN(CCCc1ccccc1)C2` (stereo not shown) | -16.62% |
| `CCCNC(=O)COc1cccc(-c2nc(C(C)C)no2)c1` | 8.415% |
| `O=C(Cn1ccc2ccccc21)NCc1ccc(C(=O)O)cc1` | -4.167% |
| `CCOC(=O)c1coc(N2CCN(Cc3ccc(C)cc3)C(=O)C2)n1` | 18.05% |
| `CCOCc1cccc(S(=O)(=O)Nc2ncc(C)s2)c1` | 8.885% |
| `Cc1nc(CNC2CCc3nc(C(C)C)nn3C2)oc1C` (stereo not shown) | 0.2572% |
| `CNC(=O)c1ccc(C2CN(C(=O)c3cncs3)CCO2)nc1` (stereo not shown) | -3.242% |
| `Cc1nc2[nH]cnc(NCCCN3CCOCC3)c-2n1` | -6.148% |
| `O=C(NCc1nc2ccccc2[nH]1)c1cnn2c1OCCC2` | -6.607% |
| `Cc1cnc(NC(=O)c2ccc(-n3ncc(C#N)c3N)cc2)s1` | 0.1043% |
| `CC(C)(C)n1ncc2c1CCCC2NCc1ccsc1` (stereo not shown) | -11.06% |
| `CC(=O)N1CCOC(CNC(=O)c2cccc(CCC(C)(C)O)c2)C1` (stereo not shown) | 5.598% |
| `CN(C)CCOC[C@H]1CC[C@H]2[C@H](CCN2C(=O)c2ccoc2)O1` | 12.81% |
| `Cc1c[nH]nc1C1CCCCN1C(=O)Cn1cc(Cl)cn1` (stereo not shown) | 3.721% |
| `CCCc1nc(C)c(C(=O)Nc2cccc(C)n2)s1` | -2.377% |
| `CN(C)c1nccc(N2CCO[C@H]3CN(Cc4ccco4)C[C@H]32)n1` | 12.43% |
| `O=C(c1cocn1)N1CCC2(CC1)COC(COCc1ccccn1)C2` (stereo not shown) | -13.79% |
| `O=C(NC1CC1)c1cc(Sc2ncccn2)ccn1` | 5.308% |
| `CCC(=O)N1CCC(c2nc(C)ncc2-c2ccncc2)CC1` | -23.81% |
| `Cc1ccc(S(=O)(=O)NC2CC2)cc1C` | -8.571% |
| `Cc1cc(CN2CCN(C(=O)NCc3csc(C)n3)CC2)no1` | -12.41% |
| `COc1cc(NC(=O)NCc2ccccn2)cc(OC)c1` | -1.509% |
| `O=C(C1CNCCO1)N1CCCC(c2ccccc2)(c2ccccc2)C1` (stereo not shown) | -3.114% |
| `CCc1ccc(C(=O)NCc2ccnc(N3CCN(C)CC3)c2)o1` | -11.51% |
| `CC(NC(=O)NCCCN1CCCC1=O)c1nncn1C` (stereo not shown) | 1.541% |
| `Cc1ccc(CNC(=O)c2ccc(=O)n(C)n2)c(OC2CCCC2)c1` | -6.929% |
| `NC(=O)c1ccc(C(=O)N(Cc2ccc(O)cc2)CC2CC2)cc1` | -8.484% |
| `Cc1cccc(OCc2nnc(SCC3CCCN(C)C3)o2)c1` (stereo not shown) | -0.3992% |
| `Cc1c(-c2nc(-c3cccc(CN4CCOCC4)c3)no2)cnn1C` | -5.382% |
| `CCOC(=O)N1CCN(C(=O)c2cc(-c3ccccc3F)on2)CC1` | 1.755% |
| `CCC(NS(=O)(=O)c1ccc(C(=O)NC2CC2)cc1)c1cnn(C)c1` (stereo not shown) | -0.8746% |
| `O=C1N(c2cccc(F)c2)Cc2nc(=O)[nH]n21` | 3.696% |
| `COCc1nc(CNC2CCSC2)no1` (stereo not shown) | -5.89% |
| `CCc1nc(CN(C)C(=O)CSC)no1` | -5.661% |
| `CCC(C)(CC(=O)OC)NC(=O)c1ccc2[nH]ccc2c1` (stereo not shown) | -7.28% |
| `CN(CCC1CCCCO1)c1nncc(-c2ccccc2)n1` (stereo not shown) | -2.891% |

Some entries from above, unchanged:

CN(CCC1CCCCO1)c1nncc(-c2ccccc2)n1 (stereo not shown) gave -2.891%.
O=C(NCc1nc2ccccc2[nH]1)c1cnn2c1OCCC2 gave -6.607%.
Cc1c[nH]nc1C1CCCCN1C(=O)Cn1cc(Cl)cn1 (stereo not shown) gave 3.721%.
CN(C)c1nccc(N2CCO[C@H]3CN(Cc4ccco4)C[C@H]32)n1 gave 12.43%.